The source of these data is PubChem BioAssay AID1487 (National Center for Advancing Translational Sciences (NCATS), 2009).

The structures appear in SMILES notation. This is one part of the list. Shown are side measurements of this screen, not its main read-out; they come without a call. Compounds called inactive in the main read-out are mostly missing here. Words in brackets tell the shape of the fitted curve; partial curves, single points and poor fits give uncertain potencies.

The nature of the test: qHTS Assay for Modulators of Lamin A Splicing. The following applies: HeLa LMNA splicing GFP/RFP minigene ratio, 48 h. The gist of the method: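 S3 HeLa stable clones carrying a lamin A-EGFP splicing minigene plus DsRed2 were seeded at 600 cells/well in Opti-MEM with 2% FBS, pin-dosed and incubated 48 h at 37°C. Acumen cytometry (488 nm) gave the GFP/RFP total-intensity ratio.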

[1] abbreviates: measured here: RFP viability control channel.
The mark [2] stands for this setting: measured here: GFP splicing reporter channel.

What is called AC50 is the concentration at which the activity in the assay is half-maximal.

`O=C(CCCc1nc2ccccc2s1)Nc1ccccc1`: the AC50 under setting [1] was 35.5 µM [falling, single point].
With `COC(=O)c1[nH]c2cc(OC)ccc2c1NC(=O)CN1CCN(c2cccc(C)c2)C(C)C1` (configuration not stated), the AC50 under setting [1] was 17.8 µM [falling, single point].
`CC1CCN(C(=O)CSc2nnc(-c3cc4ccccc4cc3O)n2Cc2ccco2)CC1`: the AC50 under setting [1] was 15.8 µM [rising, partial curve].
Regarding `Cn1nc(C(=O)Nc2ccc(S(=O)(=O)N3CCCCC3)cc2)c2ccccc2c1=O`, the AC50 under setting [2] is 0.00316 µM [rising, full curve, poor fit].
`COc1cc2c(cc1OC)-c1cc(N3CCCCCC3)nc(=O)n1CC2`: under setting [1], the AC50 is 14.1 µM [rising, single point].
Consider `CC1(C)C(C=C(Cl)Cl)C1C(=O)N1CCN(Cc2ccccc2)CC1` (configuration not stated), for which the AC50 is 2 µM [falling, partial curve, poor fit] under setting [2] and 2 µM [falling, partial curve] under setting [1].
Regarding `COC(=O)c1cn(C)c2ccc(S(=O)(=O)N3CCCC3)cc2c1=O`, the AC50 under setting [2] is 1.12 µM [falling, full curve] and the AC50 under setting [1] is 10 µM [falling, partial curve, poor fit].
For `Cc1cccc(Nc2ncc3c(n2)CC(c2ccco2)CC3=O)c1` (configuration not stated), under setting [1], the AC50 is 11.2 µM [rising, single point].
Same read-out and setting: to `Cc1cnc([N+](=O)[O-])n1CCOC(=O)NC(=O)c1ccc(C(F)(F)F)cc1` belongs 0.00891 µM [falling, full curve, poor fit].
Still for that read-out and setting: to `Cc1ccc(-n2nnnc2SCC(=O)Nc2nc(-c3ccc(F)cc3)cs2)cc1C` belongs 35.5 µM [falling, single point].
Turning to `CSc1nc(C)[nH]c(=O)c1C#N`, the AC50 under setting [2] is 0.794 µM [rising, full curve, poor fit].
On to `CC(C)(C)c1ccc(C(=O)NCCCN2CCN(CCCNC(=O)c3ccc(C(C)(C)C)cc3)CC2)cc1`, for which the AC50 was 35.5 µM [rising, single point] under setting [2] and 35.5 µM [rising, single point] under setting [1].
Take `Cc1ccc(CSc2nnc(SCC(=O)N/N=C/c3c(C)nn(-c4ccccc4)c3C)s2)cc1`: the AC50 runs as follows: under setting [2], 22.4 µM [rising, single point]; under setting [1], 25.1 µM [rising, single point].
`CCOc1ccc(NC(=O)C2(c3cccs3)CCOCC2)cc1`: under setting [2], the AC50 was 0.0158 µM [falling, full curve, poor fit].
As for `O=C1C(SCCO)=C(SCCO)C(=O)c2ccccc21`, the AC50 is 3.98 µM [falling, full curve] under setting [2] and 5.01 µM [falling, full curve] under setting [1].
For `Cc1cc(C(=O)NCCC2=CCCCC2)no1`, the concentration at half-maximal activity (AC50) runs as follows: under setting [2], 0.562 µM [rising, partial curve, poor fit]; under setting [1], 7.08 µM [rising, partial curve, poor fit].
For the molecule `CC(C)(C)c1ccc(-c2nc(C#N)c(NCc3ccncc3)o2)cc1`, the AC50 is 35.5 µM [rising, single point] under setting [2] and 31.6 µM [rising, single point] under setting [1].
Consider `COc1cc(CC(=O)Nc2ccc3nc(C)sc3c2)cc(OC)c1OC`, for which the AC50 under setting [1] was 25.1 µM [rising, single point].
As for `COc1ccc(Oc2ncc3nc(-c4ccc(F)cc4)c(=O)n(Cc4cccs4)c3n2)cc1`, the AC50 under setting [2] is 14.1 µM [falling, partial curve].
Consider `O=C(COc1ccc(-c2ccccc2)cc1)N/N=C/c1cc(O)ccc1Br`, for which the half-maximal activity concentration (AC50) under setting [1] was 35.5 µM [rising, single point].
The same measure, in the same setting: to `Cc1nn2c(-c3ccco3)nnc2c2ccccc12` belongs 6.31 µM [rising, full curve, poor fit].
In the case of `Cc1onc(-c2c(F)cccc2Cl)c1C(=O)NCC1COc2ccccc2O1` (configuration not stated), the AC50 is 14.1 µM [rising, single point] under setting [2] and 17.8 µM [rising, single point] under setting [1].
Take `CCOC(=O)Nc1ccc(S(=O)(=O)N2CCC(C)CC2)cc1`: the AC50 under setting [1] is 6.31 µM [rising, partial curve].
On the same count and under the same terms, next, `O=C(NCc1ccc(F)cc1)C(=O)NCC(c1ccco1)N1CCOCC1` (configuration not stated): 0.01 µM [falling, full curve, poor fit].
`O=C(NCCc1ccccc1)c1oc2ccccc2c1COc1ccccc1`: the AC50 reads like this: under setting [2], 11.2 µM [rising, single point]; under setting [1], 25.1 µM [rising, single point].
For `CCN(CC)c1ccc(/C=N/Nc2nc(C)cc(=O)[nH]2)c(O)c1`, under setting [1], the AC50 is 10 µM [rising, partial curve].
For `CC1=C(C(=O)Nc2nc3ccccc3s2)C(c2ccco2)C(C#N)=C(SCC(=O)NC2CCCCC2)N1` (configuration not stated), the AC50 reads like this: under setting [2], 35.5 µM [rising, single point]; under setting [1], 35.5 µM [rising, single point].
On to `Cc1ccc(C2CC2c2n[nH]c(=S)n2-c2cccc(C)c2)cc1` (configuration not stated), for which the AC50 under setting [1] is 2.82 µM [rising, single point].
For the molecule `Cc1cc(SCC(=O)NC(=O)NCc2ccco2)nc2ccccc12`, the AC50 is, setting by setting: under setting [2], 35.5 µM [rising, single point]; under setting [1], 28.2 µM [rising, single point].
As to `CCN(CC)S(=O)(=O)c1ccc2c(c1)nc(CCC(=O)Nc1ccc3c(c1)OCO3)n2CC`, the half-maximal activity concentration (AC50) reads like this: under setting [2], 20 µM [rising, single point]; under setting [1], 35.5 µM [rising, single point].
As to `Cc1cc(NC(=O)c2ccc(F)cc2)n(CCOC(=O)c2ccc(F)cc2)n1`, the AC50 under setting [1] is 12.6 µM [rising, partial curve, poor fit].
As to `O=C(Cc1ccc(-n2cccc2)cc1)NCc1cccs1`, the concentration at half-maximal activity (AC50) under setting [1] was 3.98 µM [rising, full curve].
In the case of `CC(C)c1ccc(OC(=O)c2cc(-c3ccccc3)on2)cc1`, the AC50 was 35.5 µM [falling, single point] under setting [2] and 35.5 µM [falling, single point] under setting [1].
Turning to `O=C(c1ccc(COc2ccc(Cl)cc2)o1)N1CCN(Cc2ccc3c(c2)OCO3)CC1`, the AC50 under setting [1] is 8.91 µM [rising, partial curve].
`CCCC1Nc2ccc(C(=O)O)cc2C2C=CCC12` (configuration not stated): the half-maximal activity concentration (AC50) under setting [2] is 1 µM [rising, partial curve, poor fit].
Consider `Fc1cc(F)c(F)c(SCCc2ccncc2)c1F`, for which the AC50 under setting [1] is 0.178 µM [rising, single point].
Turning to `COc1ccc(C2C(C(=O)Nc3cccnc3)=C(C)Nc3nc(-c4cccs4)nn32)cc1` (configuration not stated), the AC50 under setting [1] was 14.1 µM [rising, single point].
With `O=C(CN1CCN(c2ccccc2)CC1)Nc1ccccc1Sc1ccccc1`, the AC50 under setting [1] is 28.2 µM [rising, single point].
Consider `O=C(C[n+]1cc(-c2ccc(F)cc2)n2c1CCC2)N1c2ccccc2Sc2ccccc21`, for which the AC50 under setting [1] is 35.5 µM [rising, single point].
For `CSCC[C@H](NC(=O)OC(C)(C)C)c1nnc(SCc2cccc(F)c2)o1`, the AC50 was 35.5 µM [rising, single point] under setting [2] and 31.6 µM [rising, single point] under setting [1].
For `OCCC1CN(Cc2ccsc2)CCN1C1CCCC1` (configuration not stated), under setting [1], the AC50 is 6.31 µM [falling, partial curve, poor fit].
`C=CCn1c(CNc2ccccc2)nnc1SCC(=O)N/N=C/c1ccccc1O`: the AC50 is 31.6 µM [rising, single point] under setting [2] and 35.5 µM [rising, single point] under setting [1].
Take `COc1ccc(CN2C(=O)c3ccccc3C2C(=O)NCCc2ccccc2)c(OC)c1` (configuration not stated): the half-maximal activity concentration (AC50) under setting [1] was 0.447 µM [falling, single point].
`CC(C)(C)NS(=O)(=O)c1cc(C(=O)Nc2sccc2C#N)ccc1Cl`: the AC50 under setting [2] is 5.62 µM [rising, partial curve] and the AC50 under setting [1] is 11.2 µM [rising, partial curve].
Take `O=C(O)CSCC(=O)Nc1ccc(S(=O)(=O)N2CCCCC2)cc1`: the AC50 under setting [1] was 0.0316 µM [falling, full curve].
Consider `Cn1c(=O)n(/N=C/c2ccccc2)c2ccccc21`, for which, under setting [1], the AC50 is 0.158 µM [rising, full curve, poor fit].
In the case of `COc1ccc(CNc2oc(-c3ccc(COc4ccccc4C)o3)nc2C#N)cc1`, the AC50 under setting [1] was 35.5 µM [falling, single point].
On to `CCn1cc(C2=NOC(C(=O)Nc3cc(OC)c(Cl)cc3OC)C2)c(C)n1` (configuration not stated), for which the AC50 under setting [2] is 17.8 µM [rising, partial curve] and the AC50 under setting [1] is 15.8 µM [rising, partial curve].
Consider `Cc1ccc(-c2nc(C)c(CCNS(=O)(=O)c3ccc(F)c(C(F)(F)F)c3)s2)cc1`, for which the half-maximal activity concentration (AC50) is, setting by setting: under setting [2], 35.5 µM [falling, single point]; under setting [1], 35.5 µM [falling, single point].
With `CCCCC(CC)C(=O)Nc1ccc(C)c(O)c1` (configuration not stated), the AC50 under setting [1] was 11.2 µM [falling, partial curve, poor fit].
On to `O=C(/C=C/c1ccc2c(c1)OCO2)c1ccccn1`, for which the AC50 under setting [1] is 14.1 µM [falling, single point].
Still for that read-out and setting: to `CCOC(=O)c1sc(S(C)(=O)=O)c2c1CCc1conc1-2` belongs 0.0891 µM [falling, full curve, poor fit]; to `CCCOc1ccc2ccccc2c1/C=N/n1c(C)nnc1-n1nc(C)cc1C`, 3.55 µM [rising, full curve, poor fit].
Take `CC1(C)CCC2=C(O1)c1ccccc1C(=O)C2=O`: the AC50 is 22.4 µM [falling, partial curve, poor fit] under setting [2] and 0.00501 µM [falling, full curve, poor fit] under setting [1].
For the molecule `CNc1nc(-c2ccc3c(c2)OCO3)nc2ccccc12`, the AC50 under setting [2] is 22.4 µM [falling, partial curve, poor fit].
In the case of `COc1cc2c(c(OC)c1)C(c1cccc(OC)c1OC)CC(=O)N2` (configuration not stated), the AC50 under setting [1] is 12.6 µM [rising, single point].
As to `CCSc1nnc(NC(=O)NC(C)(C(F)(F)F)C(F)(F)F)s1`, the AC50 is 7.94 µM [rising, partial curve] under setting [2] and 11.2 µM [rising, partial curve] under setting [1].
